The list shows a part of the results. These are further read-outs of the screen, such as a control signal, another cell line or another target. No call is given for them. The list favours compounds with an active or inconclusive main result. Words in brackets tell the shape of the fitted curve; partial curves, single points and poor fits give uncertain potencies.
Assay: qHTS Assay for Lipid Storage Modulators in Drosophila S3 Cells;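 for cell number change: cells counted by Cell Tracker Red CMTPX staining in the red channel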
Settings: BODIPY lipid droplet fluorescence, 18-24 h; for cell number change: measured here: cell count max response, cells fed with added oleic acid
Outline: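 Laser-scanning cytometry quantifies lipid droplet accumulation (500–530 nm total intensity; droplet/cell object ratio) in oleic acid-fed (400 uM added) Drosophila S3 cells treated with a concentration series. 20 uM Triacsin C defined 100% inhibition.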

[1] = measured here: cell number channel AC50, cells fed with added oleic acid
[2] = measured here: lipid fluorescence (Fed channel) AC50, cells fed with added oleic acid

Work on `COc1ccc(CCNC(=S)N2CCC(C(N)=O)CC2)cc1` yielded a cell number change of -20.1%.
For `Cc1cc(C(=O)OCC(=O)N2c3ccccc3CC2C)c(C)o1` (stereo not given), the cell number change was 64.1%, the AC50 [1] was 2.06 µM [rising, full curve] and the AC50 [2] was 23.1 µM [rising, single point].
For `CC1(C)Cc2c(sc(/N=C/N3CCOCC3)c2C#N)C(C)(C)N1`, the cell number change was -75.7% and the AC50 [1] was 29.1 µM [falling, single point].
For `CCCC(=O)Nc1c2c(nn1-c1cccc(Cl)c1)CS(=O)(=O)C2`, the cell number change was -2.45% and the AC50 [2] was 18.4 µM [rising, single point].
In the case of `COc1ccc(CCNC(=O)c2cccs2)cc1OC`, the cell number change is reported as -22.6% and the AC50 [2] is reported as 0.092 µM [falling, full curve].
With `Cc1ccc2cc3c(NC(=O)c4ccco4)nn(C)c3nc2c1` the cell number change was -21.1% and the AC50 [2] was 8.2 µM [falling, partial curve].
For `Clc1ccc(-c2nnnn2-c2ccc(Cl)c(Cl)c2)cc1Cl`, the cell number change was 91.1%, the AC50 [1] was 4.61 µM [rising, full curve] and the AC50 [2] was 0.58 µM [rising, single point].
In the case of `COc1ccc(NC(=O)CN(C)C(=O)c2ccc3[nH]c4c(c3c2)CC(C)CC4)cc1` (stereo not given), the AC50 [1] is reported as 4.61 µM [rising, single point].
In the case of `Cc1ccc2c(c1)C(c1ccccc1)N(C(=O)c1ccc(Br)cc1)CC(=O)N2` (stereo not given), the cell number change is reported as -1.5% and the AC50 [2] is reported as 0.13 µM [rising, full curve, poor fit].
With `COCCC(=O)N(Cc1ccc2c(c1)OCO2)C(C(=O)NC1CCCCC1)c1ccncc1` (stereo not given) the cell number change was 18.8% and the AC50 [2] was 7.31 µM [rising, partial curve].
In the case of `COc1cc2[nH]c(=O)n(CCCC(=O)NC3CCCCC3)c(=O)c2cc1OC`, the cell number change is reported as 8.55% and the AC50 [2] is reported as 0.651 µM [rising, single point].
For `CCn1c(SCC(=O)N2CCCCC2)nc2c(c1=O)SC(C)C2` (stereo not given), the AC50 [2] was 6.51 µM [rising, single point].
With `Cc1ccc(SCc2c(C(=O)N/N=C/c3cccnc3)nnn2-c2nonc2N)cc1` the cell number change was -2.39% and the AC50 [2] was 4.11 µM [falling, single point].
`O=C(COC(=O)c1cc(Br)ccc1Cl)NC1CCCC1` showed a cell number change of 55.6%.
In the case of `CSc1cccc(NC(=O)C2CCCN2S(=O)(=O)c2ccc(Br)s2)c1` (stereo not given), the cell number change is reported as 44.2%, the AC50 [1] is reported as 8.2 µM [rising, partial curve] and the AC50 [2] is reported as 29.1 µM [rising, single point].
With `CCN(CC)c1ccc(/C=c2\sc3nc4ccccc4n3c2=O)c(O)c1` the cell number change was -6.37% and the AC50 [2] was 29.1 µM [falling, single point].
In the case of `COc1cc(N/N=C(\C)c2ccc(N)cc2)nc(-c2ccccc2)n1`, the cell number change is reported as 11.9% and the AC50 [1] is reported as 0.411 µM [falling, single point].
`O=C(O)c1cccc(S(=O)(=O)Nc2cccc(S(=O)(=O)N3CCCC3)c2)c1` gave a cell number change of -0.752%.
For `CCCn1nc(NC(=O)C2CCCO2)c2cc3cc(C)ccc3nc21` (stereo not given), the cell number change was 1.44%, the AC50 [1] was 0.206 µM [rising, full curve] and the AC50 [2] was 0.517 µM [rising, full curve].
In the case of `Cc1ccc2[nH]c(=O)c(CN(Cc3cccnc3)Cc3nnnn3CCN3CCOCC3)cc2c1`, the AC50 [1] is reported as 6.51 µM [rising, single point] and the AC50 [2] is reported as 5.8 µM [falling, single point].
For `Cn1c(SCc2cccc(Br)c2)nc2ccccc2c1=O`, the cell number change was -22.8% and the AC50 [2] was 29.1 µM [falling, single point].
For `Cc1cccc(N(Cc2cc3ccc(C)cc3[nH]c2=O)S(=O)(=O)c2ccccc2)c1`, the cell number change was -5.34% and the AC50 [2] was 29.1 µM [rising, single point].
In the case of `Cc1cccc2nc(C(=O)Nc3cc(Cl)ccc3-n3cncn3)cn12`, the cell number change is reported as -4.37% and the AC50 [2] is reported as 32.6 µM [falling, single point].
For `O=C(NC1CCCCC1)C(c1ccccc1F)N(C(=O)c1csnn1)C1CCCC1` (stereo not given), the cell number change was -20% and the AC50 [2] was 0.206 µM [rising, single point].
`O=C(O)Cc1ccc(NC(=O)Nc2cccc(Cl)c2)cc1` showed a cell number change of 6.49%.
`CC(=O)Nc1cccc(C(=O)OCC(=O)NNC(=O)c2cccs2)c1` gave a cell number change of 8.5%.
With `CCn1c(SCC(=O)Nc2nc3ccccc3s2)nnc1-c1ccc(OC)cc1` the cell number change was -7.51% and the AC50 [2] was 6.51 µM [falling, partial curve].
With `Cc1cc(S(=O)(=O)N2CCOCC2)ccc1OCC(=O)Nc1ccccc1F` the cell number change was 11.5% and the AC50 [1] was 0.00517 µM [rising, full curve, poor fit].
`c1cc(-c2noc(CC3CCCCC3)n2)ccn1` gave a cell number change of -17.6%.
In the case of `Cc1cccc(N=C2NC(=O)CS2)c1`, the cell number change is reported as -0.491%.
In the case of `O=C(N/N=C/c1ccc2nccnc2c1)c1ccccc1O`, the cell number change is reported as -18.7% and the AC50 [2] is reported as 32.6 µM [falling, single point].
For `Clc1cccc(CSc2nnc(-c3ccccn3)n2Cc2ccco2)c1`, the cell number change was 108%, the AC50 [1] was 29.1 µM [rising, single point] and the AC50 [2] was 18.4 µM [rising, partial curve].
With `COc1ccc(Cn2nnc(C(=O)Nc3ccc4c(c3)OCCO4)c2N)cc1Br` the cell number change was 31.9%, the AC50 [1] was 16.4 µM [rising, single point] and the AC50 [2] was 29.1 µM [rising, single point].
In the case of `CCC(C)NCC(=O)Nc1ccc(S(N)(=O)=O)cc1` (stereo not given), the AC50 [2] is reported as 0.651 µM [rising, single point].
With `Cc1ccc(C(=O)COC(=O)c2cn(-c3ccccc3)nc2-c2ccccc2)cc1[N+](=O)[O-]` the cell number change was 1.69% and the AC50 [2] was 3.66 µM [rising, full curve, poor fit].
Work on `COc1ccc(S(=O)(=O)N2CCC(N3CCCC3)CC2)cc1` yielded a cell number change of 13.7%.
In the case of `CC(=O)NC12CC3CC(C1)CC(C(=O)N1CCN(S(=O)(=O)c4cccc(C(F)(F)F)c4)CC1)(C3)C2`, the cell number change is reported as 38% and the AC50 [1] is reported as 2.06 µM [rising, partial curve].
With `Cc1ccc2c(c1)nnn2C1CCN(S(C)(=O)=O)CC1` the AC50 [1] was 4.11 µM [falling, single point] and the AC50 [2] was 7.31 µM [falling, partial curve].
In the case of `Cc1ccc(C(=O)NC2CCN(CC(=O)NC3CCC(C)CC3)CC2)cc1` (stereo not given), the cell number change is reported as -3.15% and the AC50 [2] is reported as 6.51 µM [rising, single point].
For `CCC(CC)C(=O)Nc1nnc(S(=O)(=O)N2c3ccccc3CC2C)s1` (stereo not given), the cell number change was -21.3% and the AC50 [2] was 8.2 µM [falling, partial curve].

Reference: PubChem BioAssay AID2685 (National Center for Advancing Translational Sciences (NCATS), 2010)
